PubChem BioAssay AID1259308 – NCATS | 2017
The whole screen tested about 59,000 reagents; this is a random part of them. About 1,510 of all reagents (2.6%) count as active. 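Calls use total luciferase alone and ignore viability, so some active siRNAs may act by altering cell number.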 Reagents against one gene are numbered here. Further read-outs or replicates are left out here.

- Purpose: 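Knock-downs that increase output of a recombinant reporter protein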 (primary screen)
- Cell system: human HEK293 embryonic kidney cells stably expressing firefly luciferase (HEK-CMV-Luc2-Hygro)
- Reagent: single siRNA against human genes, 0.8 pmol siRNA per well
- Time to read-out: 72 h
- Detection: 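Reporter luminescence and viable-cell signal on separate replicate plates, given as percent of non-targeting control and median/MAD z-scores, plus per-cell luciferase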
- Direction: total luciferase, z-score and total luciferase, % of control: higher = more reporter protein produced
- Hit rule: 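Active when the median/MAD z-score for overall luciferase is greater than 3; a gene was taken forward for validation with new siRNAs if at least two of its three siRNAs passed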
- Calls: active = raised luciferase; inactive = no rise

| Target gene | reagent | total luciferase, z-score | total luciferase, % of control | Call |
| --- | --- | --- | --- | --- |
| GPR18 (G protein-coupled receptor 18) | 1 | -0.163 | 78.6 | inactive |
| GPR18 (G protein-coupled receptor 18) | 2 | 0.426 | 90.4 | inactive |
| GPR18 (G protein-coupled receptor 18) | 3 | 3.21 | 146 | active |
| PLEKHG4B (pleckstrin homology and RhoGEF domain containing G4B) | 1 | -0.789 | 66.2 | inactive |
| PLEKHG4B (pleckstrin homology and RhoGEF domain containing G4B) | 2 | 0.221 | 86.3 | inactive |
| PLEKHG4B (pleckstrin homology and RhoGEF domain containing G4B) | 3 | 0.687 | 95.5 | inactive |
| OPALIN (oligodendrocytic myelin paranodal and inner loop protein) | 1 | -0.168 | 78.6 | inactive |
| OPALIN (oligodendrocytic myelin paranodal and inner loop protein) | 2 | -1.03 | 61.4 | inactive |
| OPALIN (oligodendrocytic myelin paranodal and inner loop protein) | 3 | 1.05 | 103 | inactive |
| DCLK1 (doublecortin like kinase 1) | 1 | 1.07 | 103 | inactive |
| DCLK1 (doublecortin like kinase 1) | 2 | 0.267 | 87.2 | inactive |
| DCLK1 (doublecortin like kinase 1) | 3 | -0.0847 | 80.2 | inactive |
| AMELX (amelogenin X-linked) | 1 | 1.6 | 114 | inactive |
| AMELX (amelogenin X-linked) | 2 | 0.156 | 85 | inactive |
| AMELX (amelogenin X-linked) | 3 | 0.115 | 84.2 | inactive |
| UPP2 (uridine phosphorylase 2) | 1 | -0.706 | 67.8 | inactive |
| UPP2 (uridine phosphorylase 2) | 2 | -0.306 | 75.8 | inactive |
| UPP2 (uridine phosphorylase 2) | 3 | -0.85 | 65 | inactive |
| SRSF12 (serine and arginine rich splicing factor 12) | 1 | 0.181 | 85.5 | inactive |
| SRSF12 (serine and arginine rich splicing factor 12) | 2 | -1.2 | 58.1 | inactive |
| SRSF12 (serine and arginine rich splicing factor 12) | 3 | 0.614 | 94.1 | inactive |
| SPATA18 (spermatogenesis associated 18) | 1 | 2.84 | 138 | inactive |
| SPATA18 (spermatogenesis associated 18) | 2 | -0.00757 | 81.7 | inactive |
| SPATA18 (spermatogenesis associated 18) | 3 | 1.71 | 116 | inactive |
| TCN1 (transcobalamin 1) | 1 | 0.434 | 90.5 | inactive |
| TCN1 (transcobalamin 1) | 2 | 0.0978 | 83.8 | inactive |
| TCN1 (transcobalamin 1) | 3 | 0.206 | 86 | inactive |
| NYAP2 | 1 | 2.41 | 130 | inactive |
| NYAP2 | 2 | -0.12 | 79.5 | inactive |
| NYAP2 | 3 | 0.561 | 93 | inactive |
| SIRT6 (sirtuin 6) | 1 | -0.0717 | 80.5 | inactive |
| SIRT6 (sirtuin 6) | 2 | 0.51 | 92 | inactive |
| SIRT6 (sirtuin 6) | 3 | 0.442 | 90.7 | inactive |
| MAPK4 (mitogen-activated protein kinase 4) | 1 | -0.744 | 67.1 | inactive |
| MAPK4 (mitogen-activated protein kinase 4) | 2 | -1.4 | 53.9 | inactive |
| MAPK4 (mitogen-activated protein kinase 4) | 3 | -0.694 | 68.1 | inactive |
| MIS18A (MIS18 kinetochore protein A) | 1 | -0.205 | 77.8 | inactive |
| MIS18A (MIS18 kinetochore protein A) | 2 | -0.566 | 70.6 | inactive |
| MIS18A (MIS18 kinetochore protein A) | 3 | -0.995 | 62.1 | inactive |
| ZNF300 (zinc finger protein 300) | 1 | 0.177 | 85.4 | inactive |
| ZNF300 (zinc finger protein 300) | 2 | 0.0948 | 83.8 | inactive |
| ZNF300 (zinc finger protein 300) | 3 | -0.266 | 76.6 | inactive |

Active calls, among the entries above:
| Target gene | reagent | total luciferase, z-score | total luciferase, % of control | Call |
| --- | --- | --- | --- | --- |
| GPR18 (G protein-coupled receptor 18) | 3 | 3.21 | 146 | active |

The listing continues.
| Target gene | reagent | total luciferase, z-score | total luciferase, % of control | Call |
| --- | --- | --- | --- | --- |
| PSMB5 (proteasome 20S subunit beta 5) | 1 | 0.278 | 87.4 | inactive |
| PSMB5 (proteasome 20S subunit beta 5) | 2 | -0.26 | 76.7 | inactive |
| PSMB5 (proteasome 20S subunit beta 5) | 3 | -0.0673 | 80.5 | inactive |
| SLC25A3 | 1 | 0.576 | 93.3 | inactive |
| SLC25A3 | 2 | -0.782 | 66.3 | inactive |
| SLC25A3 | 3 | -0.979 | 62.4 | inactive |
| CNPY1 (canopy FGF signaling regulator 1) | 1 | 1.3 | 108 | inactive |
| CNPY1 (canopy FGF signaling regulator 1) | 2 | -0.567 | 70.6 | inactive |
| CNPY1 (canopy FGF signaling regulator 1) | 3 | -1.16 | 58.8 | inactive |
| ZNF205 (zinc finger protein 205) | 1 | -0.517 | 71.6 | inactive |
| ZNF205 (zinc finger protein 205) | 2 | 2.89 | 139 | inactive |
| ZNF205 (zinc finger protein 205) | 3 | -0.689 | 68.2 | inactive |
| TMEM45A (transmembrane protein 45A) | 1 | 0.23 | 86.5 | inactive |
| TMEM45A (transmembrane protein 45A) | 2 | 1.91 | 120 | inactive |
| TMEM45A (transmembrane protein 45A) | 3 | 0.173 | 85.3 | inactive |
| CLTB (clathrin light chain B) | 1 | -0.715 | 67.7 | inactive |
| CLTB (clathrin light chain B) | 2 | -2.86 | 25 | inactive |
| CLTB (clathrin light chain B) | 3 | -0.0471 | 81 | inactive |
| TIMP1 (TIMP metallopeptidase inhibitor 1) | 1 | 1.37 | 109 | inactive |
| TIMP1 (TIMP metallopeptidase inhibitor 1) | 2 | -0.404 | 73.9 | inactive |
| TIMP1 (TIMP metallopeptidase inhibitor 1) | 3 | 0.136 | 84.6 | inactive |
| GTF2H2C_2 (GTF2H2 family member C, copy 2) | 1 | 2.93 | 140 | inactive |
| GTF2H2C_2 (GTF2H2 family member C, copy 2) | 2 | 0.347 | 88.8 | inactive |
| GTF2H2C_2 (GTF2H2 family member C, copy 2) | 3 | -0.0111 | 81.7 | inactive |
| MFF (mitochondrial fission factor) | 1 | -1.4 | 54.1 | inactive |
| MFF (mitochondrial fission factor) | 2 | 1.88 | 119 | inactive |
| MFF (mitochondrial fission factor) | 3 | -1.08 | 60.5 | inactive |
| TENM1 (teneurin transmembrane protein 1) | 1 | 0.125 | 84.4 | inactive |
| TENM1 (teneurin transmembrane protein 1) | 2 | 0.296 | 87.8 | inactive |
| TENM1 (teneurin transmembrane protein 1) | 3 | -0.139 | 79.1 | inactive |
| UCHL5 (ubiquitin C-terminal hydrolase L5) | 1 | -2.12 | 39.7 | inactive |
| UCHL5 (ubiquitin C-terminal hydrolase L5) | 2 | -0.8 | 66 | inactive |
| UCHL5 (ubiquitin C-terminal hydrolase L5) | 3 | -0.295 | 76 | inactive |
